In PubChem BioAssay AID330 (DTP/NCI, 2004) one finds T/C and survivor count data, which are given here for 15 molecules.

This assay concerns P388 leukemia ip, CD2F1 mice, survival T/C. Kind of assay: NCI In Vivo Anticancer Drug Screen. Data for tumor model P388 Leukemia (intraperitoneal) in CD2F1 (CDF1) mice. The conditions noted are these: T/C endpoint: median survival time, higher T/C = longer survival.
Where [1] appears, read: dose: 240.0 mg/kg/injection, schedule: Q01DX005 (ip), vehicle: Klucel (hydroxypropylcellulose) (HPC).
[2] abbreviates: dose: 400.0 mg/kg/injection, schedule: Q04DX002 (ip), vehicle: saline.
The mark [3] stands for this setting: dose: 50.0 mg/kg/injection, schedule: Q04DX003 (ip), vehicle: water.

The list shows only some results of the screen, not a fair sample: it is rich in T/C values a quarter to a half above the control, in often repeated tests (any T/C) and in doses without a T/C. Other doses and runs of a compound stand elsewhere. T/C is the treated group as % of the vehicle group. Some entries give survivors of the animals treated and no T/C: the source holds a T/C of zero for them, seemingly a mark for toxic or unscored doses. Some survivor counts are full or nearly so, which does not show that the dose was tolerated: survival well below the control is almost never listed, so the zero probably covers shortened survival too. Survivors were counted at the toxicity check, usually on the fifth day, unless a day is given; later deaths do not show. Schedule codes are those of the source, taken here to give the interval after Q, in days (D) or hours (H), and the number of doses after X. Some doses were run more than once; their values stand side by side, smallest first. For survival time, the PubChem record calls one and a half times the control and up active, and a quarter to a half above the control has no call in these data; cut-offs in other NCI protocols can differ. Some T/C values carry the count of animals alive at the toxicity check (mostly the fifth day); without a count, all were alive then.

As to `COc1ccc(C[C@H](N)C(=O)NC2C(CO)OC(n3cnc4c(N(C)C)ncnc43)C2O)cc1` (stereo partly specified), the T/C runs as follows: (dose: 8.0 mg/kg/injection, schedule: Q03HX024 (ip), vehicle: saline) 141 % of control; (dose: 33.0 mg/kg/injection, schedule: Q01DX009 (ip), vehicle: saline with Tween-80, evaluated on day 30) 129 % of control; (dose: 33.0 mg/kg/injection, schedule: Q01DX009 (ip), vehicle: saline with Tween-80, evaluated on day 60) 132 % of control; (dose: 50.0 mg/kg/injection, schedule: Q01DX009 (ip), vehicle: saline with Tween-80, evaluated on day 30) 130 % of control; (dose: 50.0 mg/kg/injection, schedule: Q01DX009 (ip), vehicle: saline with Tween-80, evaluated on day 45) 128 % of control; (dose: 50.0 mg/kg/injection, schedule: Q01DX009 (ip), vehicle: saline with Tween-80, evaluated on day 60) 134 % of control. The T/C by setting is: (dose: 66.0 mg/kg/injection, schedule: Q01DX009 (ip), vehicle: saline sonified) 127 % of control; (dose: 75.0 mg/kg/injection, schedule: Q01DX009 (ip), vehicle: saline with Tween-80, evaluated on day 30) 145 % of control; (dose: 75.0 mg/kg/injection, schedule: Q01DX009 (ip), vehicle: saline with Tween-80, evaluated on day 45) 137 % of control; (dose: 75.0 mg/kg/injection, schedule: Q01DX009 (ip), vehicle: saline with Tween-80, evaluated on day 60) 138 % of control; (dose: 100.0 mg/kg/injection, schedule: Q01DX009 (ip), vehicle: saline sonified, evaluated on day 20) 145 % of control; (dose: 100.0 mg/kg/injection, schedule: Q01DX009 (ip), vehicle: saline sonified, evaluated on day 30) 131 % of control [5 of 6 alive]. For the same molecule, the T/C (dose: 112.0 mg/kg/injection, schedule: Q01DX009 (ip), vehicle: saline with Tween-80, evaluated on day 30) was 145 % of control; the T/C (dose: 112.0 mg/kg/injection, schedule: Q01DX009 (ip), vehicle: saline with Tween-80, evaluated on day 45) is 146 % of control; the T/C (dose: 112.0 mg/kg/injection, schedule: Q01DX009 (ip), vehicle: saline with Tween-80, evaluated on day 60) is 147 % of control; the T/C (dose: 256.0 mg/kg/injection, schedule: Q01DX001 (ip), vehicle: saline) is 127 % of control [5 of 6 alive]. For the same molecule, the survivor count is given as 4 of 6 (dose: 32.0 mg/kg/injection, schedule: Q03HX024 (ip), vehicle: saline); 1 of 6 (dose: 64.0 mg/kg/injection, schedule: Q03HX024 (ip), vehicle: saline); 6 of 6 (dose: 120.0 mg/kg/injection, schedule: Q01DX009 (ip), vehicle: water); 6 of 6 (dose: 140.0 mg/kg/injection, schedule: Q01DX009 (ip), vehicle: water); 6 of 6 (dose: 160.0 mg/kg/injection, schedule: Q01DX009 (ip), vehicle: water); 4 of 6 (dose: 180.0 mg/kg/injection, schedule: Q01DX009 (ip), vehicle: water). Moreover, the survivor count is, setting by setting: (dose: 200.0 mg/kg/injection, schedule: Q01DX009 (ip), vehicle: saline sonified) 3 of 6; (dose: 256.0 mg/kg/injection, schedule: Q01DX005 (ip), vehicle: saline) 0 of 6; (dose: 256.0 mg/kg/injection, schedule: Q01DX009 (ip), vehicle: saline) 1 of 6; (dose: 400.0 mg/kg/injection, schedule: Q01DX009 (ip), vehicle: saline sonified) 0 of 6; (dose: 512.0 mg/kg/injection, schedule: Q01DX001 (ip), vehicle: saline) 3 of 6; (dose: 512.0 mg/kg/injection, schedule: Q04DX003 (ip), vehicle: saline) 5 of 6. Moreover, the survivor count (dose: 1028.0 mg/kg/injection, schedule: Q01DX001 (ip), vehicle: saline) was 1 of 6.
Regarding `O=c1[nH]c2c([N+](=O)[O-])cc(Cl)cc2nc1/C=C(\O)c1ccncc1`, the survivor count under setting [1] was 3 of 6.
For the molecule `CN(C)n1c(O)c(N=O)sc1=S`, for the setting “dose: 200.0 mg/kg/injection, schedule: Q01DX005 (ip), vehicle: Klucel (hydroxypropylcellulose) (HPC)”, the survivor count is listed as 0 of 6.
For the molecule `O=[N+]([O-])c1ccc2nc3c4ccccc4c4ccccc4c3nc2c1`, the survivor count (dose: 400.0 mg/kg/injection, schedule: Q01DX009 (ip), vehicle: saline with Tween-80) is 0 of 6.
In the case of `C#CC[N+]12CN3CN(CN(C3)C1)C2`, the T/C (dose: 200.0 mg/kg/injection, schedule: Q01DX009 (ip), vehicle: saline) is 126 % of control.
`C[C@]12CC[C@@H]3c4ccc(OCCCO)c([N+](=O)[O-])c4CC[C@H]3[C@@H]1CCC2=O`: the survivor count (dose: 400.0 mg/kg/injection, schedule: Q01DX005 (ip), vehicle: saline with Tween-80) is recorded as 6 of 6.
`NC1CCc2cc(O)c(O)cc2C1` (stereo unspecified): the T/C under setting [2] is 125 % of control.
Turning to `COc1cccc2c1C(=O)c1c(O)c3c(c(O)c1C2=O)C/C(=N/O)CC3OC1CC(NC(=O)C(F)(F)F)C(O)C(C)O1` (stereo unspecified), the T/C (dose: 25.0 mg/kg/injection, schedule: Q01DX009 (ip), vehicle: other) was 128 % of control.
In the case of `CNC(=S)N/N=C(\C)C(C)(C)C`, the survivor count (dose: 200.0 mg/kg/injection, schedule: Q04DX003 (ip), vehicle: saline) is on record as 2 of 6 and the survivor count (dose: 400.0 mg/kg/injection, schedule: Q04DX003 (ip), vehicle: saline) is 0 of 6.
As to `COc1ccc2c(N)c3cccc[n+]3cc2c1OC`, under setting [3], the T/C is 130 % of control. Besides, the survivor count by setting is: under setting [3], 6 of 6; (dose: 100.0 mg/kg/injection, schedule: Q04DX003 (ip), vehicle: water) 0 of 6 and 2 of 6; (dose: 200.0 mg/kg/injection, schedule: Q04DX003 (ip), vehicle: water) 0 of 6; (dose: 400.0 mg/kg/injection, schedule: Q04DX003 (ip), vehicle: water) 0 of 6.
As for `CC(=O)OCC1OC(n2cnc3c(=S)nc(N)[nH]c32)C(OC(C)=O)C1OC(C)=O` (stereo unspecified), the T/C is 145 % of control (dose: 12.5 mg/kg/injection, schedule: Q01DX009 (ip), vehicle: saline with Tween-80); 145 % of control (dose: 25.0 mg/kg/injection, schedule: Q04DX003 (ip), vehicle: saline with Tween-80); 140 % of control (dose: 50.0 mg/kg/injection, schedule: Q04DX003 (ip), vehicle: saline with Tween-80); 145 % of control (dose: 100.0 mg/kg/injection, schedule: Q04DX003 (ip), vehicle: saline with Tween-80); 127 % of control (dose: 132.0 mg/kg/injection, schedule: Q04DX003 (ip), vehicle: saline with Tween-80); 127 and 145 % of control (dose: 200.0 mg/kg/injection, schedule: Q04DX003 (ip), vehicle: saline with Tween-80). Besides, the survivor count (dose: 400.0 mg/kg/injection, schedule: Q04DX003 (ip), vehicle: saline with Tween-80) is 5 of 6.
In the case of `O=c1[nH]c(=S)[nH]nc1/C=C/c1cccc(I)c1`, the survivor count reads like this: (dose: 100.0 mg/kg/injection, schedule: Q04DX002 (ip), vehicle: saline) 3 of 6; under setting [2], 4 of 6.
Take `O=C(N/N=C/c1cccc2ccccc12)c1cccnc1`: the survivor count is listed as 6 of 6 (dose: 25.0 mg/kg/injection, schedule: Q01DX009 (ip), vehicle: saline) and 6 of 6 (dose: 50.0 mg/kg/injection, schedule: Q01DX009 (ip), vehicle: saline).
In the case of `Cc1ccc(C)n1-c1ccsc1C(=O)NNC(=O)C(Cl)Cl`, the survivor count is, setting by setting: (dose: 60.0 mg/kg/injection, schedule: Q01DX005 (ip), vehicle: Klucel (hydroxypropylcellulose) (HPC)) 0 of 6; (dose: 120.0 mg/kg/injection, schedule: Q01DX005 (ip), vehicle: Klucel (hydroxypropylcellulose) (HPC)) 0 of 6; under setting [1], 0 of 6.
For the molecule `Cc1c2cc[n+](Cc3ccc(I)cc3)cc2c(C)c2c1[nH]c1ccccc12`, the T/C is 140 % of control (dose: 50.0 mg/kg/injection, schedule: Q04DX002 (ip), vehicle: saline with Tween-80); 128 % of control (dose: 94.0 mg/kg/injection, schedule: Q04DX002 (ip), vehicle: saline with Tween-80); 133 % of control (dose: 100.0 mg/kg/injection, schedule: Q04DX002 (ip), vehicle: saline with Tween-80); 133 % of control [5 of 6 alive] (dose: 200.0 mg/kg/injection, schedule: Q04DX002 (ip), vehicle: saline with Tween-80).
